# PubChem BioAssay AID1259254 | NCATS | 2017
# Purpose: 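Gene knock-downs that lead to re-replication, shown by excess G2 DNA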 (primary screen)
# Cell system: human HCT116 colorectal cancer cells
# Reagent: single siRNA against human genes
# Time to read-out: 3 days
# Measured: 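Imaged Hoechst DNA stain sorts each cell into a cycle phase by DNA amount; per plate, G2 fraction set to 0% for non-targeting and 100% for GMNN siRNA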
# Scale: G2 robust z-score and G2 cells, % of GMNN control: higher = more G2 cells, more excess DNA replication; raw share of cells in G2: higher = larger share of cells with G2 DNA content
# Rule for the call: 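An siRNA counts as active if its G2 robust z-score lies at least 5 MADs above the screen median; here such calls match roughly 38% of GMNN control or more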
# The deposit covers about 59,000 reagents; this is a random part of them. Over the whole deposit, about 1,550 (2.6%) are marked active. 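G2 share is only a proxy for re-replication; each gene was hit by three separate siRNAs, and active genes were retested.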 The raw values are shown without normalisation. A number with no mark means an inactive call. Reagent sequences are not shown. Not stated in the record: the amount of reagent.
gene,PubChem SID,G2 robust z-score,"G2 cells, % of GMNN control",raw share of cells in G2 (%)
ARF3 (ARF GTPase 3),SID160719537,-0.386,0.255,4.81
ARF3 (ARF GTPase 3),SID160719548,-1.2,-5.49,3.12
ARF3 (ARF GTPase 3),SID160719558,-0.923,-3.52,2.68
GPBP1L1 (GC-rich promoter binding protein 1 like 1),SID160747039,-0.512,-0.634,4.3
GPBP1L1 (GC-rich promoter binding protein 1 like 1),SID160747040,0.77,8.39,8.37
GPBP1L1 (GC-rich promoter binding protein 1 like 1),SID160747041,0.528,6.68,4.46
SLC39A12,SID160761590,0.724,8.06,6.5
SLC39A12,SID160761591,1.53,13.7,7.83
SLC39A12,SID160761592,-0.55,-0.901,2.91
TMEM230 (transmembrane protein 230),SID160733025,1.1,10.7,6.64
TMEM230 (transmembrane protein 230),SID160738979,-0.33,0.644,4.1
TMEM230 (transmembrane protein 230),SID160738980,-0.825,-2.83,3.48
SFXN2 (sideroflexin 2),SID160755688,2.05,17.4,11.1
SFXN2 (sideroflexin 2),SID160755689,-0.461,-0.279,5.54
SFXN2 (sideroflexin 2),SID160755690,-0.0448,2.65,6.1
TCF23 (transcription factor 23),SID160724878,0.0283,3.17,4.17
TCF23 (transcription factor 23),SID160759028,-0.855,-3.05,2.81
TCF23 (transcription factor 23),SID160759029,-1.09,-4.7,1.46
YPEL4 (yippee like 4),SID160761298,-0.0772,2.42,4.46
YPEL4 (yippee like 4),SID160761299,-0.358,0.447,3.28
YPEL4 (yippee like 4),SID160761300,-0.951,-3.73,2
RPL31P13 (ribosomal protein L31 pseudogene 13),SID160733813,3.73,29.2,11.6
RPL31P13 (ribosomal protein L31 pseudogene 13),SID160768843,-0.23,1.35,4.15
RPL31P13 (ribosomal protein L31 pseudogene 13),SID160768844,1.71,15,8.66
OR2L2 (olfactory receptor family 2 subfamily L member 2),SID160737823,3.51,27.7,14.8
OR2L2 (olfactory receptor family 2 subfamily L member 2),SID160737824,-0.132,2.04,4.82
OR2L2 (olfactory receptor family 2 subfamily L member 2),SID160737825,-0.269,1.08,3.68
SMG9 (SMG9 nonsense mediated mRNA decay factor),SID160744727,-0.0425,2.67,5.4
SMG9 (SMG9 nonsense mediated mRNA decay factor),SID160744728,-0.564,-1,3.98
SMG9 (SMG9 nonsense mediated mRNA decay factor),SID160744729,-0.405,0.115,3.07
"FBXL21P (F-box and leucine rich repeat protein 21, pseudogene)",SID160737780,9.34 (active),68.7,30.2
"FBXL21P (F-box and leucine rich repeat protein 21, pseudogene)",SID160737781,0.746,8.22,7.5
"FBXL21P (F-box and leucine rich repeat protein 21, pseudogene)",SID160737782,0.433,6.01,5.4
OTOA (otoancorin),SID160758327,2.46,20.3,10.6
OTOA (otoancorin),SID160758328,-0.25,1.21,3.29
OTOA (otoancorin),SID160758329,-0.618,-1.38,2.59
IL2RA (interleukin 2 receptor subunit alpha),SID160775690,-0.875,-3.19,4.47
IL2RA (interleukin 2 receptor subunit alpha),SID160775691,0.51,6.56,6.61
IL2RA (interleukin 2 receptor subunit alpha),SID160775692,0.189,4.29,6.6
EBLN2 (endogenous Bornavirus like nucleoprotein 2),SID160742931,-0.818,-2.79,3.45
EBLN2 (endogenous Bornavirus like nucleoprotein 2),SID160742932,-0.577,-1.1,3.68
EBLN2 (endogenous Bornavirus like nucleoprotein 2),SID160742933,-0.135,2.02,3.78
PITPNM2 (phosphatidylinositol transfer protein membrane associated 2),SID160731604,-0.544,-0.861,4.04
PITPNM2 (phosphatidylinositol transfer protein membrane associated 2),SID160746391,0.0371,3.23,5.4
PITPNM2 (phosphatidylinositol transfer protein membrane associated 2),SID160746392,-0.526,-0.73,5.34
PTPA (protein phosphatase 2 phosphatase activator),SID160714805,0.38,5.64,6.63
PTPA (protein phosphatase 2 phosphatase activator),SID160714806,-0.404,0.127,4.34
PTPA (protein phosphatase 2 phosphatase activator),SID160714808,-0.576,-1.08,3.17
"ASH2L (ASH2 like, histone lysine methyltransferase complex subunit)",SID160721402,-0.631,-1.47,3.04
"ASH2L (ASH2 like, histone lysine methyltransferase complex subunit)",SID160721403,-1.41,-6.95,2.89
"ASH2L (ASH2 like, histone lysine methyltransferase complex subunit)",SID160721404,0.149,4.02,5.02
SPPL3 (signal peptide peptidase like 3),SID160755938,0.288,4.99,7.71
SPPL3 (signal peptide peptidase like 3),SID160755939,1.81,15.7,9.65
SPPL3 (signal peptide peptidase like 3),SID160755940,0.343,5.38,6.26
DGKD (diacylglycerol kinase delta),SID160720242,-1.02,-4.2,4.28
DGKD (diacylglycerol kinase delta),SID160720244,-0.771,-2.46,4.3
DGKD (diacylglycerol kinase delta),SID160732056,-0.121,2.12,4.36
AVIL (advillin),SID160729027,-0.881,-3.23,4.29
AVIL (advillin),SID160729031,1.14,11,10.8
AVIL (advillin),SID160729032,-0.303,0.838,4.11
MED29 (mediator complex subunit 29),SID160733612,-0.618,-1.38,2.7
MED29 (mediator complex subunit 29),SID160743844,1.21,11.5,8.94
MED29 (mediator complex subunit 29),SID160743845,-0.713,-2.05,3.29
FIP1L1 (factor interacting with PAPOLA and CPSF1),SID160750875,-0.523,-0.713,3.87
FIP1L1 (factor interacting with PAPOLA and CPSF1),SID160750876,-1.16,-5.21,1.91
FIP1L1 (factor interacting with PAPOLA and CPSF1),SID160750877,-0.737,-2.22,1.73
THOC1 (THO complex subunit 1),SID160723606,1.11,10.8,9.27
THOC1 (THO complex subunit 1),SID160723607,-0.182,1.69,3.78
THOC1 (THO complex subunit 1),SID160723608,-0.215,1.46,5.34
